Values of other authors as cited in patent US20100151056A1, “DIETARY SUPPLEMENTS FOR DECREASING THE LATENT FOREIGN DNA LOAD” (priority 2008, published 2010).
Read-outs that look alike come from different tables or passages of the source. For at least one compound, name, drawing or mass did not settle the structure.

System: Hepatitis B e antigen (HBeAg) in Hep G2.2.15 cells

## O=c1c(O[C@@H]2O[C@H](CO)[C@H](O)[C@H](O)[C@H]2O)c(-c2ccc(O)c(O)c2)oc2cc(O)cc(O)c12 [hyperoside, quercetin-3-O-β-D-galactoside]
Day 4
  median effective concentration (IC50) on HBeAg: about 0.012 g/L
Day 8
  median effective concentration (IC50) on HBeAg: about 0.009 g/L
